Test results reported in paper PMC11810119.

Protein sequences, listed by entry. Tags and fused reporters are not part of them.
UniProt O35889: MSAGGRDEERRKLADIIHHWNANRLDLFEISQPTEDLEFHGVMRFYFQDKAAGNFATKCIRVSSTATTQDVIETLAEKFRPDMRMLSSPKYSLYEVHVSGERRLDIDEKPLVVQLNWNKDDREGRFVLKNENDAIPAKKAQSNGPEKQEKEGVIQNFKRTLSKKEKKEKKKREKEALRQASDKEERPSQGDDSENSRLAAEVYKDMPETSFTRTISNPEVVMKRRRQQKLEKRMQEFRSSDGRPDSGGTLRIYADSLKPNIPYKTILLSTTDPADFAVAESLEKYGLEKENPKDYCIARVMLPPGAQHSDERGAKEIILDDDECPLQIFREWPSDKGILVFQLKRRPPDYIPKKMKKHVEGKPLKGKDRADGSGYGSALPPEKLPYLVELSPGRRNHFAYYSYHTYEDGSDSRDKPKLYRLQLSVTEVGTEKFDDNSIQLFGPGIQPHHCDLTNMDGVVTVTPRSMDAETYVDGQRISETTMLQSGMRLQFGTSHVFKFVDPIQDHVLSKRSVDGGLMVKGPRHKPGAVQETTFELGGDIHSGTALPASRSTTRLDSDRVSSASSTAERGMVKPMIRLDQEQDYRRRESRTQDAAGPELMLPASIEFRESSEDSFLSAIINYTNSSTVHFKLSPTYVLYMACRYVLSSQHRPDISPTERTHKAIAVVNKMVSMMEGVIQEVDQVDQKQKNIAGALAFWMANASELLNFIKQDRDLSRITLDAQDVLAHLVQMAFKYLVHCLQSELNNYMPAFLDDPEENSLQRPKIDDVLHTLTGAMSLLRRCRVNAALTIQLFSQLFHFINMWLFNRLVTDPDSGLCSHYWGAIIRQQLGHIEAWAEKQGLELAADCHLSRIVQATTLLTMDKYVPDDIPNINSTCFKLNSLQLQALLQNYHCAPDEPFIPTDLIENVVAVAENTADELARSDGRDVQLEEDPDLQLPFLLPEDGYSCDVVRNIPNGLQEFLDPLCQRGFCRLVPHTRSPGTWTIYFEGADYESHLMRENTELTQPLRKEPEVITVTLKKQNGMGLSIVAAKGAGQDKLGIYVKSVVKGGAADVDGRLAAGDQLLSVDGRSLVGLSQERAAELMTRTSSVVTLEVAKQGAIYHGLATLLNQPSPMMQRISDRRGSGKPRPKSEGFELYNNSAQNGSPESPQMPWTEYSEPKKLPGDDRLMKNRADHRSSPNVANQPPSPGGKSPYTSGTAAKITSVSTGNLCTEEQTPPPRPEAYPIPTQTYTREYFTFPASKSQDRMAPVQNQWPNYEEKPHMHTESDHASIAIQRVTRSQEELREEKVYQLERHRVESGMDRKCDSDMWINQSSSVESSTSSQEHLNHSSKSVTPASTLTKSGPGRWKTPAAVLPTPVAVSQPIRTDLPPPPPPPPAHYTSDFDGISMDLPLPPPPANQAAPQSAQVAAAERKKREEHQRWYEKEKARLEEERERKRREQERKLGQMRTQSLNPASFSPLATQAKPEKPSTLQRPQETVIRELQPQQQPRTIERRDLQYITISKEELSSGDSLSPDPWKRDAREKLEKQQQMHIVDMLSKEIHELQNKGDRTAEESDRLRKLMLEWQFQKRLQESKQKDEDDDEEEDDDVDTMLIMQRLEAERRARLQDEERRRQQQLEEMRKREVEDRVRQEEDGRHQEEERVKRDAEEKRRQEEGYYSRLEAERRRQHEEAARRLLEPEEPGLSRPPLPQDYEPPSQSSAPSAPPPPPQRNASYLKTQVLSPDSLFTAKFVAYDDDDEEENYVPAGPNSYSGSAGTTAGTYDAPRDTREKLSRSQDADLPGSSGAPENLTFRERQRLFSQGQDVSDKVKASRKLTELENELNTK

Tests used:
Afadin-BL (rat) [1] = biological target: Afadin-BL (rat) (UniProt O35889); experiment: proximity labelling; BirA*-Afadin fusion in stable MDCK lines, biotin over a time course of hours, biotinylated proteins affinity-purified with streptavidin, immunoblot for junctional and cytoskeletal proteins
BL-Afadin (rat) [2] = biological target: BL-Afadin (rat) (UniProt O35889); experiment: as above
Afadin-BL (rat) [3] = biological target: Afadin-BL (rat) (UniProt O35889); experiment: proximity labelling; BioID: BirA*-Afadin fusion expressed in MDCK cells (duplicates; one replicate each also in ZO-1/ZO-2 knock-down MDCK cells), 50 µM biotin for 24 h, lysates on streptavidin Dynabeads, trypsin digestion, label-free LC-MS/MS; hits SAINT >=0.9 versus BirA* alone
BL-Afadin (rat) [4] = biological target: BL-Afadin (rat) (UniProt O35889); experiment: as above

Measured: binding

B1: Tight junction protein 2=ZO-2 (protein, UniProt Q95168 1-1174)
chain: MEELIWEQYTVTLQKDSKRGFGIAVSGGRDNPHFENGETSIVISDVLPGGPADGLLQENDRVVMVNGTPMEDVLHSFAVQQLRKSGKIAAIVVKRPRKVQLAPPQGSLPVDEDDRAFEVMDEFDGRSARSGYSERSRRSSHGGRSRSWEDSPERGRPHERAWSQERERSRGRSLERGLDHDDDYRRPRERSRGRSLERGLDHDDDYGRPGERSHGMSTDRGYDRGYDRGYDRGYDRTYSPEAEYGRRTQPDARHAGSRSRSREHLRSRSPSPELRGRPDHAGQPDSDRPIGVLLMKSKANEEYGLRLGSQIFIKQMTRTALATKDGNLHEGDIILKINGTVTENMSLTDARKLIEKSRGKLQLVVLRDSKQTLINIPSLNDSDSEIEDISEIESNRSFSPEERRQQYSDYDYHSSNEKLKERPNSREDMQNRWSRMGATPTPFKSMGDIASVVGTENSKEPRYQEEPPAPQPKAAPRTFLRPSPEDEAIYGPNTKMVRFKKGDSVGLRLAGGNDVGIFVAGIQEGTSAEQEGLQEGDQILKVNTQDFRGLVREDAVLYLLEIPKGEMVTILAQSRADVYRDILACGRGDSFFIRSHFECEKETPQSLAFSRGEVFRVVDTLYDGKLGHWLAVRIGNELEKGLIPNKSRAEQMASVQNAQRDNAGDRADFWRMRGQRSGMKKNLRKSREDLTAAVSVSTKFPAYERVLLREAGFKRPVVLFGPIADIALEKLANELPDLFQTAKTEPKDAGSEKSSGVVRLNTVRQIIEQDKHALLDVTPKAVDLLNYTQWFPIVIFFNPDSRQGVKTMRQRLNPTSNKSSRKLYDQANKLKKTCAHLFTATINLNSANDSWFGSLKDTIQHQQGEAVWVSEGKMEGMDDDPEDRMSYLTAMGADYLSCDSRLISDFEDTDGEGGAYTDNELDEPAEEPLVSSITRSSEPVQHEESIRKPSPEPRAQMRRAASRDQLRDSSPPPAFKPEPPKAKTQNREESFDISRSHDYKSNPSAVAGNEVSGASTRSCPPPIAAKPSFGRSILKPSTPVPSPESEEVGEGSEEQEGAPKSVLGKVKIFEKMDHKARLQRMQELQEAQNARIEIAQKHPDIYAVPIKTHKPDPGLSQHTSSRPPEPQKGPSRLYQDPRGSYGSDAEEEEYRQQLSEHSKRGYYSQPSRYRDTEL
binds: all assays above

Results are given in words; binding and its absence hold for the method and conditions named. Binding seen in cells or lysates may run through a third protein. These calls come from enrichment with a bait or labelling near it, and not all partners need be listed.
